Assay results from patent publication US20060234926.

The chains behind the UniProt entries cited, without tags or fusion partners. Where a name states a change or a piece, a line headed by the entry shows the natural chain unless it says otherwise.
UniProt P05067: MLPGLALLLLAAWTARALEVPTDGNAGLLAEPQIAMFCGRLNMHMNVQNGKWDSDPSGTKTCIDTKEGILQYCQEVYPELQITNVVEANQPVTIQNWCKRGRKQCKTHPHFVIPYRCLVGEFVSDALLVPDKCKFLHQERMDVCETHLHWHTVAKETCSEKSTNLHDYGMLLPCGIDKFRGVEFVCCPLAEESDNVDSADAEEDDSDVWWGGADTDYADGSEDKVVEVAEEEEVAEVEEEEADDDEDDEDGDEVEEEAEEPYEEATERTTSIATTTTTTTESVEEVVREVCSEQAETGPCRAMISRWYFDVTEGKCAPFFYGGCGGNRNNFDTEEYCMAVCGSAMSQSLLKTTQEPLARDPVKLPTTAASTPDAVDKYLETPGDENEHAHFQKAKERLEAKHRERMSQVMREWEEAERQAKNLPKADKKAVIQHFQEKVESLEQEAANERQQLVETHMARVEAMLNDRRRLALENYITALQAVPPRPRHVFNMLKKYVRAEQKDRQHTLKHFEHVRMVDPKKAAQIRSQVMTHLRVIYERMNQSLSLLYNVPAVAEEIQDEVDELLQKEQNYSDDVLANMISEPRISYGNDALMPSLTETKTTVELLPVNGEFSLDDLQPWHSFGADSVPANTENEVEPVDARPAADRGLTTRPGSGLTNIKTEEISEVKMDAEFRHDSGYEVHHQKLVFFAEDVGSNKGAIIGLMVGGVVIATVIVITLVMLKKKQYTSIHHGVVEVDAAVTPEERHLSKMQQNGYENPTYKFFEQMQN

Biological target: Amyloid beta 1-40, natural L-enantiomer (UniProt P05067)
Experiment: inhibition of the protein
Conditions: severely inhibits further fibril formation; peptide enantiomer in this assay not explicit; 50 mM MOPS pH 7.4, 50 mM NaCl, 1 mM MgCl2

GGGAGACAAGACUAGACGCUCAAGGGGUGCUAAGCAUUUGGCAUCCGUUUUGUGAACUGCUCGAUGUUUAUUCUUCGACAUGAGACUCACAACAGUUCCCUUUAGUGAGGGUUAAUU [anti-Abeta T3 aptamer (T3.2)]
functional effect of the aptamer: active
